Measured values as given in patent US4004008A, “O-Tertiary amino-alkyl-N-benzoyl tyrosil amides” (priority 1974, dated 1977).

Legend:
[1] = test system: ileum of a cavy (BaCl2 spasm); experiment: Antispastic activity in vitro, Magnus method, cavy ileum stimulated with BaCl2; assay type: cell-based; conditions: therapeutic index, in vitro activity index (column 4) x DL50
Procedure: C. The method in vitro is that of Magnus, with the ileum of the cavy, and is in common use for all evaluations. It consists of extracting the ileum from the cavy and placing it in a receptacle which contains nutritive liquid, suitably oxygenated, and registering the movements of the organ which remains alive for several hours if maintained at a temperature of 37°. According to the traditional method followed by us, BaCl2 is put into the bath as a spasmisant: the reaction is a violent contraction of the organ. This contraction can be prevented by adding beforehand pharmaceuticals which inhibit spasms, and in this case our compounds.
The values recorded are expressed as relation between papaverine and the ED50 of our compounds. (As is known, the ED50 is the dose which results in a 50% reduction in spastic contraction).
E. I.T.2 is the therapeutic index under the profile of the antispastic activity in vitro and is given by the product between the in vitro antispastic activity index (column 4) and the corresponding DL50 (column 2).

[2] = test system: intestinal transit of the charcoal; experiment: Vegetable carbon (charcoal) intestinal transit test in vivo; conditions: therapeutic index, DL50 / charcoal ED50, rat i.v.
Procedure: B. The vegetable carbon method in vivo (charcoal method) which consists of administering by oral means to rats, which have fasted for 24 hours, 0.3ml/per rate of a mixture consisting of: 10g of charcoal and 5 g of gum arabic suspended in a volume of 100 cc of H2 O as well as at the same time the substance being studied, accordingly as desired, generally i.v., s.c., oral. After two hours the animals are killed and those are taken to be negative in which the charcoal has reached the first portion of the colon and the others positive, in the sense that the substance administered has slowed down the intestinal transit of the charcoal.
In effect the animals treated with a physiological solution (checks) are all negative after two hours.
D. I.T.1 is the therapeutic index under the profile of the antispastic activity in vivo, and it is obtained by recording the DL50 (column 2) with the ED50 of the charcoal test (column 3).

Compound | I.T.2: DL50 CR x ED50 pap./ED50 CR [1] | I.T.1: DL50/ED50 in vivo [2]
CCCN(CCC)C(=O)C(Cc1ccc(OCCN(CC)CC)cc1)NC(=O)c1ccc(OC)cc1 (racemic) [CR 644, O-(2-diethylamino-ethyl)-N-(p-metoxy-benzoyl)-DL-tyrosil-di-n-propylamide] | 25.3 | 2.8
CCCN(CCC)C(=O)C(Cc1ccc(OCCN(CC)CC)cc1)NC(=O)c1ccc(C)c(C)c1 (racemic) [CR 632, O-(2-diethylamino-ethyl)-N-(3,4-di-methyl-benzoyl)-DL-tyrosil-di-n-propylamide] | 15.2 | 1.4
CCN(CC)CCOc1ccc(CC(NC(=O)c2ccccc2)C(=O)N(CC)CC)cc1 (racemic) [CR 734, O-(2-diethylamino-ethyl)-N-benzoyl-DL-tyrosil-di-ethylamide] | 32.3 | 1.8
CCCN(CCC)C(=O)C(Cc1ccc(OCCCN(C)C)cc1)NC(=O)c1ccccc1 (racemic) [CR 816, O-(3-dimethylamino-propyl)-N-benzoyl-DL-tyrosil-di-n-propylamide] | 32.0 | 2.9
CCCN(CCC)C(=O)C(Cc1ccc(OCCN2CCCC2)cc1)NC(=O)c1ccc(C)cc1 (racemic) [CR 650, O-(2-pyrrolidil-N'-ethyl)-N-toluoyl-DL-tyrosil-di-n-propylamide] | 20.5 | 0.95
CCCN(CCC)C(=O)C(Cc1ccc(OCCCN(C)C)cc1)NC(=O)c1ccccc1 (racemic) [CR 607, O-(3-dimethylamino-propyl)-N-benzoyl-DL-tyrosil-di-n-propylamide] | 13.3 | 1.2
CCCCNC(=O)C(Cc1ccc(OCCN(CC)CC)cc1)NC(=O)c1ccc(Cl)cc1 (racemic) [CR 729, O-(2-diethylamino-ethyl)-N-(p-chloro-benzoyl)-DL-tyrosil-n-butylamide] | 94.6 | 1.6
CCCCN(CCCC)C(=O)C(Cc1ccc(OCCCN2CCN(C)CC2)cc1)NC(=O)c1ccccc1Cl (racemic) [CR 731, O-[3-(N"-methyl-piperazine)-N'-propyl]-N-(o-chloro-benzoyl)-DL-tyrosil-di-n-butylamide] | 106.7 | 1.5
CCCCNC(=O)C(Cc1ccc(OCCN2CCCC2)cc1)NC(=O)c1ccccc1 (racemic) [CR 648, O-(2-pyrrolidil-N'-ethyl)-N-benzoyl-DL-tyrosil-n-butylamide] | 5.7 | 3.3
CCCN(CCC)C(=O)C(Cc1ccc(OCCN(C)C)cc1)NC(=O)OCc1ccccc1 [CR 603, O-(2-dimethylamino-ethyl)-N-carbobenzoxy-L-tyrosil-di-n-propylamide] | 151 | 2.05
CCCN(CCC)C(=O)C(Cc1ccc(OCCCN2CCN(CCO)CC2)cc1)NC(=O)c1ccccc1 (racemic) [CR 609, O-[3-(N"-hydroxyethyl-piperazine)-N'-propyl]-N-benzoyl-DL-tyrosil-di-n-propylamide] | 94.0 | 2.7
O-(3-pyrrolidil-N'-propyl)-N-toluoyl-DL-tyrosil-n-butylamide [CR 797] | 27.2 | 1.7
CCNC(=O)C(Cc1ccc(OCCN(C)C)cc1)NC(=O)OCc1ccccc1 [CR 610, O-(2-dimethylamino-ethyl)-N-carbobenzoxy-L-tyrosil-ethylamide] | 18.2 | 2.4
CCCCNC(=O)C(Cc1ccc(OCCN2CCN(C)CC2)cc1)NC(=O)c1ccc(Cl)cc1 (racemic) [CR 730, O-[2-(N"-methyl-piperazine)-N'-ethyl]-N-(p-chloro-benzoyl)-DL-tyrosil-n-butylamide] | 49.5 | 1.6
